Results: article PMC5493754
These are yes or no findings as the source states them, for the method shown. For some assays here: Where a sequence is shown, tags or fusion partners need not be part of it.

The chains behind the UniProt entries cited, without tags or fusion partners. Residues count along the entry.
UniProt Q13402, residues 1702-2215: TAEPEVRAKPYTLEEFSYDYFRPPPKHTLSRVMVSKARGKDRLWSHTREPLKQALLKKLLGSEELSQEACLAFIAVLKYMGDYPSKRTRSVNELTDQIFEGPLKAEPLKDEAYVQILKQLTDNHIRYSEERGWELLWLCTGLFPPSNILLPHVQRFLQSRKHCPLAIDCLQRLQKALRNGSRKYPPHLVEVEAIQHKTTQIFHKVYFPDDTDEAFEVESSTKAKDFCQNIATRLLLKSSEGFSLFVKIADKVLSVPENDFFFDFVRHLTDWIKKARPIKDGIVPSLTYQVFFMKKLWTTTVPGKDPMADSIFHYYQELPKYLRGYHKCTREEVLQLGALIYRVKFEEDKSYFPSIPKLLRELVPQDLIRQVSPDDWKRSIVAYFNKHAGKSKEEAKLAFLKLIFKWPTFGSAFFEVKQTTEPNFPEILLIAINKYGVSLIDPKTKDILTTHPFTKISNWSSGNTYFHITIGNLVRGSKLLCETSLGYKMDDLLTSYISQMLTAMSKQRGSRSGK
UniProt Q6PIF6, residues 1605-2116: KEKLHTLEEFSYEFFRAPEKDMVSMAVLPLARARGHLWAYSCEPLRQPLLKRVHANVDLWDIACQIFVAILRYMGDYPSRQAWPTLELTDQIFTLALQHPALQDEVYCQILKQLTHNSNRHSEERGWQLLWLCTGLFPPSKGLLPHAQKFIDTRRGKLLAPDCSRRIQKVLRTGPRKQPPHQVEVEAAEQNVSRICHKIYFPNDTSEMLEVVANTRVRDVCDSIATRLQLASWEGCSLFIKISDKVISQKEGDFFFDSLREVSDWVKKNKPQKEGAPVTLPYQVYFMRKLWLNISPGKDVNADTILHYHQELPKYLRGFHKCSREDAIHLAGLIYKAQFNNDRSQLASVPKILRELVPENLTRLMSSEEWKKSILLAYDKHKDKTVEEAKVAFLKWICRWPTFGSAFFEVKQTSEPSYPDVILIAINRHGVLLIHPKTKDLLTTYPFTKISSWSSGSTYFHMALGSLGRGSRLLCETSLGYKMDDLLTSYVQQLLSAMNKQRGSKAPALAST

T1: YFP-Full length (FL)-harmonin (harmonin-a1) (human) (UniProt Q9Y6N9)
T1 sequence: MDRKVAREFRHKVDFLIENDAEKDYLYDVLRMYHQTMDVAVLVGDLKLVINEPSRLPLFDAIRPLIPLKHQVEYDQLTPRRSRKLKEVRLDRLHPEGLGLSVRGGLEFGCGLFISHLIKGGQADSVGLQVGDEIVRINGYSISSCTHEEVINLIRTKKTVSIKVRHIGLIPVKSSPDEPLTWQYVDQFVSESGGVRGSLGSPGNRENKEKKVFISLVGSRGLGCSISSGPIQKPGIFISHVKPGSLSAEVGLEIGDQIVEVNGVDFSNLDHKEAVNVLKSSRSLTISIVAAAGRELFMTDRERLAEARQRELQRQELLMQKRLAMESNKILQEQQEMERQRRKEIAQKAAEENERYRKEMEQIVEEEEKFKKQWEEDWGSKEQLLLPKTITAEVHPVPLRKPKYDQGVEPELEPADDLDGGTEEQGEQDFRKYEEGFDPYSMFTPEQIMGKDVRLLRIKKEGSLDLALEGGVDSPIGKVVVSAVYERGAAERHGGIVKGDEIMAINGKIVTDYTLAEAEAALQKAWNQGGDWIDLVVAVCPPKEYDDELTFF

T2: YFP-Harmonin NPDZ1.PDZ2 (human) (UniProt Q9Y6N9)
T2 sequence: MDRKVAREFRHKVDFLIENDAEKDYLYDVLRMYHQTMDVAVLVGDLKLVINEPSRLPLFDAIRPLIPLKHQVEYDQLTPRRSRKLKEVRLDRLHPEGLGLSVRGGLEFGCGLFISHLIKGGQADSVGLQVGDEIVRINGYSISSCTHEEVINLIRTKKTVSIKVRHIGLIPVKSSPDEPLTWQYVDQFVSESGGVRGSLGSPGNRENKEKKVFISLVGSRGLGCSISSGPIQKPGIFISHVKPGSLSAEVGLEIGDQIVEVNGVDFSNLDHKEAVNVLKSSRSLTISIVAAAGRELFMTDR

T3: YFP-FL-harmonin-ΔCter (human) (UniProt Q9Y6N9)
T3 sequence: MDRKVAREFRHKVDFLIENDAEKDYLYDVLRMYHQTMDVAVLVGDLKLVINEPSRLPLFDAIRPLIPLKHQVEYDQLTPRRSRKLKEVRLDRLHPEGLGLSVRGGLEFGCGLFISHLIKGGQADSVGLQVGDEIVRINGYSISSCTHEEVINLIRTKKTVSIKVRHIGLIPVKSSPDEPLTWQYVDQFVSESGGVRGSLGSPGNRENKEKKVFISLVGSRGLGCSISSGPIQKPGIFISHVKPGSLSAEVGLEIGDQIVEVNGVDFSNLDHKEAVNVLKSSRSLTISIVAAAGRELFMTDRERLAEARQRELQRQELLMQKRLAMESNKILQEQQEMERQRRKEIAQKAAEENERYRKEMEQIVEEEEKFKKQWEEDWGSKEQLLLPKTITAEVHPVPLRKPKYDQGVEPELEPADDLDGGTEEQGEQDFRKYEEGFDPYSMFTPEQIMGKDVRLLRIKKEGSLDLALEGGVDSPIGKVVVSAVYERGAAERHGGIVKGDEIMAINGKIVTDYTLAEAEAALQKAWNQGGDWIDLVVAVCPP

T4: YFP-Harmonin-a PDZ3c (human) (UniProt Q9Y6N9)
T4 sequence: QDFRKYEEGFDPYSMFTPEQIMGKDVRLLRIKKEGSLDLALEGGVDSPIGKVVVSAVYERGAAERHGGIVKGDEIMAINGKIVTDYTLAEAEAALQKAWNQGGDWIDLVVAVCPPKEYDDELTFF


Columns and labels:
[1] = molecular target: T1, YFP-Full length (FL)-harmonin (harmonin-a1) (human); experiment: MST; as a1 but 150 mM NaCl (for FL-Harmonin-a); YFP-fused partner constant at 100 nM, non-fluorescent protein titrated; both purified
[2] = molecular target: T2, YFP-Harmonin NPDZ1.PDZ2 (human); experiment: MST; YFP-fused partner constant at 100 nM, non-fluorescent protein titrated (16 two-fold dilutions); 20 mM Hepes pH 7.0, 100 mM NaCl, 1 mM EGTA, 0.5 mM TCEP, 0.05% Tween 20; Monolith NT.115; both purified
[3] = molecular target: YFP-Myosin 7a MF2 (human) (UniProt Q13402); experiment: as above
[4] = molecular target: YFP-Myosin 7b MF2 (human) (UniProt Q6PIF6); experiment: as above
[5] = molecular target: Myosin 7a MF2 (human) (UniProt Q13402); experiment: ITC; Microcal iTC200, 10 °C; 20 mM HEPES pH 7.0, 100 mM NaCl, 0.5 mM TCEP, 1 mM EGTA; single binding site model; GST removed from harmonin; both purified
[6] = molecular target: Myosin 7b MF2 (human) (UniProt Q6PIF6); experiment: as above
[7] = molecular target: T3, YFP-FL-harmonin-ΔCter (human); experiment: MST; as a1 but 150 mM NaCl (for FL-Harmonin-a); YFP-fused partner constant at 100 nM, non-fluorescent protein titrated; both purified
[8] = molecular target: T2, YFP-Harmonin NPDZ1.PDZ2 (human); experiment: as above
[9] = molecular target: YFP-Myosin 7a MF2 (human) (UniProt Q13402); experiment: as above
[10] = molecular target: YFP-Myosin 7b MF2 (human) (UniProt Q6PIF6); experiment: as above
[11] = molecular target: T4, YFP-Harmonin-a PDZ3c (human); experiment: MST; YFP-fused partner constant at 100 nM, non-fluorescent protein titrated (16 two-fold dilutions); 20 mM Hepes pH 7.0, 100 mM NaCl, 1 mM EGTA, 0.5 mM TCEP, 0.05% Tween 20; Monolith NT.115; both purified

Row | binding [1] | binding [2] | binding [3] | binding [4] | Binder | other results
1 | no binding | no binding | no binding | no binding | Harmonin-a PDZ3c_(ΔCter) (domain or fragment, UniProt Q9Y6N9-1 428-542) QDFRKYEEGFDPYSMFTPEQIMGKDVRLLRIKKEGSLDLALEGGVDSPIGKVVVSAVYERGAAERHGGIVKGDEIMAINGKIVTDYTLAEAEAALQKAWNQGGDWIDLVVAVCPP | 
2 |  |  |  |  | Harmonin-b3 PDZ3c_(isoB) (GST removed, as used in ITC) (domain or fragment, UniProt Q9Y6N9-5 728-899) QDFRKYEEGFDPYSMFTPEQIMGKDVRLLRIKKEGSLDLALEGGVDSPIGKVVVSAVYERGAAERHGGIVKGDEIMAINGKIVTDYTLAEAEAALQKAWNQGGDWIDLVVAVCPPKEYDDELASLPSSVAESPQPVRKLLEDRAAVHRHGFLLQLEPTDLLLKSKRGNQIHR | binding [5]: no binding; binding [6]: no binding
3 |  | no binding |  |  | Harmonin-b3 PDZ3c_(isoB) (as used in MST) (domain or fragment, UniProt Q9Y6N9-5 728-899) QDFRKYEEGFDPYSMFTPEQIMGKDVRLLRIKKEGSLDLALEGGVDSPIGKVVVSAVYERGAAERHGGIVKGDEIMAINGKIVTDYTLAEAEAALQKAWNQGGDWIDLVVAVCPPKEYDDELASLPSSVAESPQPVRKLLEDRAAVHRHGFLLQLEPTDLLLKSKRGNQIHR | 
4 | no binding |  | no binding | no binding | Harmonin-a PDZ3c D546R-F551V-F552V (as used in MST) (domain or fragment, UniProt Q9Y6N9-1 428-552) QDFRKYEEGFDPYSMFTPEQIMGKDVRLLRIKKEGSLDLALEGGVDSPIGKVVVSAVYERGAAERHGGIVKGDEIMAINGKIVTDYTLAEAEAALQKAWNQGGDWIDLVVAVCPPKEYRDELTVV | 
5 |  |  | no binding |  | Harmonin-a PDZ3c D546R (domain or fragment, UniProt Q9Y6N9-1 428-552) QDFRKYEEGFDPYSMFTPEQIMGKDVRLLRIKKEGSLDLALEGGVDSPIGKVVVSAVYERGAAERHGGIVKGDEIMAINGKIVTDYTLAEAEAALQKAWNQGGDWIDLVVAVCPPKEYRDELTFF | 
6 |  |  |  |  | Harmonin-a PDZ3c D546R-F551V-F552V (GST removed, as used in ITC) (domain or fragment, UniProt Q9Y6N9-1 428-552) QDFRKYEEGFDPYSMFTPEQIMGKDVRLLRIKKEGSLDLALEGGVDSPIGKVVVSAVYERGAAERHGGIVKGDEIMAINGKIVTDYTLAEAEAALQKAWNQGGDWIDLVVAVCPPKEYRDELTVV | binding [6]: no binding
7 | no binding | no binding | no binding |  | Harmonin-a PDZ3c F551V-F552V (domain or fragment, UniProt Q9Y6N9-1 428-552) QDFRKYEEGFDPYSMFTPEQIMGKDVRLLRIKKEGSLDLALEGGVDSPIGKVVVSAVYERGAAERHGGIVKGDEIMAINGKIVTDYTLAEAEAALQKAWNQGGDWIDLVVAVCPPKEYDDELTVV | binding [7]: no binding
8 |  |  | no binding | no binding | Harmonin NPDZ1.PDZ2 (domain or fragment, UniProt Q9Y6N9-1 1-301) MDRKVAREFRHKVDFLIENDAEKDYLYDVLRMYHQTMDVAVLVGDLKLVINEPSRLPLFDAIRPLIPLKHQVEYDQLTPRRSRKLKEVRLDRLHPEGLGLSVRGGLEFGCGLFISHLIKGGQADSVGLQVGDEIVRINGYSISSCTHEEVINLIRTKKTVSIKVRHIGLIPVKSSPDEPLTWQYVDQFVSESGGVRGSLGSPGNRENKEKKVFISLVGSRGLGCSISSGPIQKPGIFISHVKPGSLSAEVGLEIGDQIVEVNGVDFSNLDHKEAVNVLKSSRSLTISIVAAAGRELFMTDR | 
9 |  |  |  |  | FL-harmonin-ΔCter (domain or fragment, UniProt Q9Y6N9-1 1-542) MDRKVAREFRHKVDFLIENDAEKDYLYDVLRMYHQTMDVAVLVGDLKLVINEPSRLPLFDAIRPLIPLKHQVEYDQLTPRRSRKLKEVRLDRLHPEGLGLSVRGGLEFGCGLFISHLIKGGQADSVGLQVGDEIVRINGYSISSCTHEEVINLIRTKKTVSIKVRHIGLIPVKSSPDEPLTWQYVDQFVSESGGVRGSLGSPGNRENKEKKVFISLVGSRGLGCSISSGPIQKPGIFISHVKPGSLSAEVGLEIGDQIVEVNGVDFSNLDHKEAVNVLKSSRSLTISIVAAAGRELFMTDRERLAEARQRELQRQELLMQKRLAMESNKILQEQQEMERQRRKEIAQKAAEENERYRKEMEQIVEEEEKFKKQWEEDWGSKEQLLLPKTITAEVHPVPLRKPKYDQGVEPELEPADDLDGGTEEQGEQDFRKYEEGFDPYSMFTPEQIMGKDVRLLRIKKEGSLDLALEGGVDSPIGKVVVSAVYERGAAERHGGIVKGDEIMAINGKIVTDYTLAEAEAALQKAWNQGGDWIDLVVAVCPP | binding [7]: no binding; binding [8]: no binding; binding [9]: no binding; binding [10]: no binding
10 |  |  |  |  | Harmonin-a PDZ2-end (domain or fragment, UniProt Q9Y6N9-1 194-552) GVRGSLGSPGNRENKEKKVFISLVGSRGLGCSISSGPIQKPGIFISHVKPGSLSAEVGLEIGDQIVEVNGVDFSNLDHKEAVNVLKSSRSLTISIVAAAGRELFMTDRERLAEARQRELQRQELLMQKRLAMESNKILQEQQEMERQRRKEIAQKAAEENERYRKEMEQIVEEEEKFKKQWEEDWGSKEQLLLPKTITAEVHPVPLRKPKYDQGVEPELEPADDLDGGTEEQGEQDFRKYEEGFDPYSMFTPEQIMGKDVRLLRIKKEGSLDLALEGGVDSPIGKVVVSAVYERGAAERHGGIVKGDEIMAINGKIVTDYTLAEAEAALQKAWNQGGDWIDLVVAVCPPKEYDDELTFF | binding [11]: no binding
